From PubChem BioAssay AID504467 (National Center for Advancing Translational Sciences (NCATS), 2011)
Hit rate of the full screen: of about 330,000 compounds, about 7,700 (2.3%) were called active. The shares of active, inactive and inconclusive entries below differ from those in the screen. Calls come from the whole dose curve; as a rule, active = well fitted inhibition curve with a large enough effect; inconclusive = small, poorly fitted or top-dose-only effect, or effect the other way; inactive = flat fitted curve, though single readings scatter. Potencies of inconclusive entries are doubtful fits and often do not repeat.

Test: qHTS screen for small molecules that inhibit ELG1-dependent DNA repair in human embryonic kidney (HEK293T) cells expressing luciferase-tagged ELG1; note: nearly all actives have a fitted effect of over 55% in size
Conditions: HEK293T ELG1-luciferase reporter, luminescence, 16 h, DNA damage induced by 5-fluorouridine; series mostly up to 46.1 µM
Summary of the method: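 In this reporter screen, reduction of luminescence relative to DMSO vehicle indicated activity. Compounds and 5-fluorouridine were added together to 2,000 cells per well, incubated for 16 hr at 37 °C, then developed with ONE-Glo.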
Potency is the fitted concentration of half-maximal effect.

Question: Which Potency does the source give for `COc1cccc(NC(=O)c2cccnc2)c1` here?
Answer: The Potency was inconclusive: 18.4 µM [activator, single point].

Question: For `CN(C)C(=O)c1ccc(-c2n[nH]c(=O)c3ccccc23)cc1`, which Potency is on record?
Answer: The Potency was inconclusive: 16.4 µM [inhibitor, partial curve, poor fit].

Question: With `CCOc1ccc(C/C(N)=N/n2cnnc2)cc1` as the molecule, how does the Potency read?
Answer: Its Potency is “inactive”.

Question: For `O=C(Nc1ccc(S(=O)(=O)N2CCCC2)cc1)c1cncc(Br)c1`, which Potency is on record?
Answer: Its Potency is inconclusive: 14.6 µM [inhibitor, partial curve, poor fit].

Question: For `Cc1ccc(SCCN2CCC(C)CCC2=O)cc1` (centres undefined), which Potency is on record?
Answer: The Potency was inconclusive: 10.3 µM [activator, partial curve].

Question: With `COc1ccc(NC(=O)COC(=O)CCc2nc3ccccc3c(=O)[nH]2)cc1Cl` as the molecule, how does the Potency read?
Answer: Its Potency is inconclusive: 20.6 µM [activator, partial curve, poor fit].

Question: For `CN(C)c1cc2c(cc1NC(=O)c1ccccc1Cl)n(C)c(=O)n2C`, which Potency is on record?
Answer: Its Potency is inconclusive: 29.1 µM [inhibitor, single point].

Question: Which Potency does the source give for `C/C(=N\OC(=O)c1cccc(C)c1)c1sc(-c2ccccc2)nc1C` here?
Answer: Its Potency is inconclusive: 3.66 µM [activator, full curve].

Question: For `Cc1ccc(NC(=O)CCS(=O)(=O)c2ccccc2)cc1S(=O)(=O)N1CCCCCC1`, which Potency is on record?
Answer: The Potency was inconclusive: 29.1 µM [inhibitor, single point].

Question: With `Fc1cccc(NC(=S)NNc2c3ccccc3nc3ccccc23)c1` as the molecule, how does the Potency read?
Answer: The Potency was inconclusive: 4.11 µM [inhibitor, full curve].

Question: With `Cc1nc2nc(-c3ccccc3)[nH]n2c(=O)c1Cc1ccccc1` as the molecule, how does the Potency read?
Answer: The Potency was inconclusive: 20.6 µM [activator, partial curve].

Question: For `C=CCN1C(=O)C(C)(C)N(C(=O)c2cccc([N+](=O)[O-])c2)c2ccccc21`, which Potency is on record?
Answer: Its Potency is inconclusive: 10.3 µM [inhibitor, partial curve, poor fit].

Question: Which Potency does the source give for `Cn1cc(CN2CCCCC2C(=O)Nc2ccc(-n3cccn3)cc2)cn1` (centres undefined) here?
Answer: The Potency was “inactive”.

Question: For `Cc1cc(Oc2ccc(C#N)cc2)nc(NCc2ccccc2)n1`, which Potency is on record?
Answer: Its Potency is inconclusive: 16.4 µM [inhibitor, partial curve].

Question: With `COc1ccc(N2CCN(C(=O)COC(=O)c3ccccc3OCc3ccc(F)cc3)CC2)cc1` as the molecule, how does the Potency read?
Answer: Its Potency is inconclusive: 23.1 µM [inhibitor, single point].

Question: Which Potency does the source give for `O=C(/C=C/Nc1ccc(Br)cc1F)c1ccccc1` here?
Answer: Its Potency is inconclusive: 0.184 µM [activator, full curve].

Question: With `CCOC(=O)N(CC)OC(=O)Nc1ccc(Cl)cc1` as the molecule, how does the Potency read?
Answer: The Potency was inconclusive: 18.4 µM [activator, partial curve, poor fit].

Question: Which Potency does the source give for `COC(=O)c1cc(NC(=O)CN(c2cccc(OC)c2)S(=O)(=O)c2ccccc2)ccc1Cl` here?
Answer: Its Potency is inconclusive: 25.9 µM [inhibitor, single point].

Question: For `C[C@@]12CCC3[C@@](CCC4[C@@]3(C)CCC[C@@]4(C)C(=O)N3CCOCC3)(CC1=O)C2` (some centres undefined), which Potency is on record?
Answer: Its Potency is inconclusive: 13 µM [activator, partial curve, poor fit].

Question: Which Potency does the source give for `COCCN(C(=O)COC(=O)c1ccccc1Oc1ccccc1)c1c(N)n(Cc2ccccc2)c(=O)[nH]c1=O` here?
Answer: The Potency was “inactive”.

Question: For `Nc1ccc(OCc2ccco2)cc1`, which Potency is on record?
Answer: The Potency was inconclusive: 23.1 µM [activator, single point].

Question: For `N#Cc1sc(NCc2ccccc2)nc1Cl`, which Potency is on record?
Answer: Its Potency is inconclusive: 13 µM [activator, partial curve].

Question: Which Potency does the source give for `Clc1ccccc1CONc1ncnc2nonc12` here?
Answer: Its Potency is inconclusive: 20.6 µM [activator, single point].

Question: With `CCOC(=O)C1CCN(C(=O)c2cc3c(ccc4ccccc43)o2)CC1` as the molecule, how does the Potency read?
Answer: Its Potency is inconclusive: 8.2 µM [activator, partial curve].

Question: For `COc1ccc(NC(=S)N2CCN(C/C=C/c3ccccc3)CC2)cc1OC`, which Potency is on record?
Answer: The Potency was “inactive”.

Question: With `Cn1cnc(S(=O)(=O)NC2CCN(Cc3ccccc3)CC2)c1` as the molecule, how does the Potency read?
Answer: Its Potency is “inactive”.

Question: For `O=C(NCCN1C(=O)S/C(=C\c2ccc(Cl)cc2)C1=O)c1ccc(F)c(S(=O)(=O)N2CCOCC2)c1`, which Potency is on record?
Answer: The Potency was inconclusive: 5.17 µM [activator, single point].

Question: Which Potency does the source give for `O=C(NCCc1c[nH]c2ccccc12)C(=O)Nc1ccccc1` here?
Answer: Its Potency is inconclusive: 5.8 µM [activator, single point].

Question: For `COC(=O)c1sccc1NC(=S)Nc1ccc(OC)cc1`, which Potency is on record?
Answer: Its Potency is “inactive”.

Question: Which Potency does the source give for `COc1ccc(N2C(=O)C(Cl)=C(Nc3ccccc3OC)C2=O)cc1` here?
Answer: Its Potency is “inactive”.

Question: Which Potency does the source give for `O=C(O)CCc1ccc(-c2cccs2)o1` here?
Answer: Its Potency is inconclusive: 25.9 µM [activator, partial curve, poor fit].

Question: With `Cc1[nH]n(-c2ccccc2)c(=O)c1C=Nc1cccc2cccnc12` as the molecule, how does the Potency read?
Answer: The Potency was inconclusive: 29.1 µM [inhibitor, single point].

Question: For `Cc1ccc(S(=O)(=O)C2(C(=O)O)CCCC2)cc1C`, which Potency is on record?
Answer: Its Potency is inconclusive: 29.1 µM [activator, partial curve, poor fit].

Question: Which Potency does the source give for `Cc1ccc(CNS(=O)(=O)/C=C/c2ccc3c(c2)OCO3)cc1` here?
Answer: The Potency was “inactive”.

Question: For `Cc1occc1C(=O)NC1CCCCCC1`, which Potency is on record?
Answer: The Potency was inconclusive: 17.8 µM [activator, single point].

Question: With `CCN(CC)S(=O)(=O)c1ccc(OC)c(NC(=O)c2cc([N+](=O)[O-])ccc2Cl)c1` as the molecule, how does the Potency read?
Answer: Its Potency is inconclusive: 14.6 µM [activator, single point].

Question: Which Potency does the source give for `CCn1cc(CN2CCC(n3nccc3NC(=O)c3cccc(F)c3)CC2)cn1` here?
Answer: Its Potency is “inactive”.

Question: With `CN(c1ccc(O)cc1)c1nc(-c2cccs2)cs1` as the molecule, how does the Potency read?
Answer: The Potency was inconclusive: 25.9 µM [inhibitor, partial curve, poor fit].

Question: With `Cc1ccccc1NC(=O)CSc1nnc(C)c(=O)[nH]1` as the molecule, how does the Potency read?
Answer: The Potency was “inactive”.

Question: For `Cc1ccc(NC(=O)CNC(=O)c2cccs2)cc1S(=O)(=O)Nc1ccc(Cl)cc1`, which Potency is on record?
Answer: Its Potency is “inactive”.

Question: For `COCc1c(C(=O)Nc2cccc(S(=O)(=O)N3CCCCC3)c2)oc2ccccc12`, which Potency is on record?
Answer: Its Potency is inconclusive: 8.2 µM [inhibitor, partial curve].

Question: Which Potency does the source give for `COc1ccc(-c2coc3c(CN4CCOCC4)c(O)ccc3c2=O)cc1` here?
Answer: The Potency was inconclusive: 32.6 µM [activator, partial curve, poor fit].

Question: For `CN(C)C(CNC(=O)CSc1nc2ccccc2c(=O)n1Cc1ccco1)c1ccccc1` (centres undefined), which Potency is on record?
Answer: The Potency was “inactive”.

Question: With `CC(NC(=O)C1CCCN(S(=O)(=O)N2CCOCC2)C1)c1ccccc1` (centres undefined) as the molecule, how does the Potency read?
Answer: The Potency was inconclusive: 20.6 µM [activator, partial curve, poor fit].

Question: With `Cc1cc(C(=O)CSc2nn3c(=O)c(C(C)(C)C)nnc3s2)c(C)n1-c1ccc(F)cc1` as the molecule, how does the Potency read?
Answer: Its Potency is “inactive”.

Question: For `O=C(COc1ccccc1)Nc1ncccn1`, which Potency is on record?
Answer: Its Potency is inconclusive: 18.4 µM [activator, partial curve].

Question: For `O=C1NC(=Nc2cccnc2)S/C1=C\c1cccc(F)c1`, which Potency is on record?
Answer: The Potency was “inactive”.

Question: Which Potency does the source give for `CCOCCc1c(O)nc(SCC(=O)N2CCOCC2)[nH]c1=O` here?
Answer: Its Potency is inconclusive: 18.3 µM [activator, partial curve, poor fit].

Question: For `CCC1S/C(=N/C(=O)NC2CCCCC2)NC1=O` (centres undefined), which Potency is on record?
Answer: Its Potency is inconclusive: 18.4 µM [activator, partial curve].

Question: For `CCOc1ccccc1NC(=O)c1cccc(NC(=O)C(C)C)c1`, which Potency is on record?
Answer: The Potency was inconclusive: 16.4 µM [inhibitor, single point].

Question: Which Potency does the source give for `Cc1nc2ccccc2c2oc(C(=O)NCc3ccccn3)cc12` here?
Answer: The Potency was active: 18.4 µM.

Question: With `Cc1ccc(OCC(=O)N2CCCCCC2)c(C)c1` as the molecule, how does the Potency read?
Answer: Its Potency is inconclusive: 20.6 µM [activator, single point].

Question: With `COCCNC(=O)c1ccccc1NS(=O)(=O)c1ccc(Br)s1` as the molecule, how does the Potency read?
Answer: Its Potency is “inactive”.

Question: Which Potency does the source give for `CC(=O)N1CCN(c2ccc(NC(=O)/C=C/c3ccccc3)cc2)CC1` here?
Answer: Its Potency is inconclusive: 5.8 µM [activator, partial curve].

Question: With `O=C(NCCCNC(=O)c1ccccn1)c1ccc(Cl)cc1` as the molecule, how does the Potency read?
Answer: The Potency was “inactive”.

Question: With `Cc1ccccc1N1CCN(c2ccc(NC(=O)C3CCCCC3C(=O)O)cc2)CC1` (centres undefined) as the molecule, how does the Potency read?
Answer: The Potency was inconclusive: 2.06 µM [inhibitor, partial curve, poor fit].

Question: Which Potency does the source give for `CC(=O)Nc1ccc(N)cc1` here?
Answer: Its Potency is “inactive”.

Question: For `C=C(C)COc1ccc(-c2ncncc2-c2ccc(Cl)cc2)c(O)c1`, which Potency is on record?
Answer: The Potency was inconclusive: 23.1 µM [inhibitor, partial curve].

Question: For `COC(=O)c1c(C)[nH]c(C(=O)OCC(=O)c2c(N)n(CC(C)C)c(=O)n(C)c2=O)c1C`, which Potency is on record?
Answer: Its Potency is active: 16.4 µM.

Question: For `Cc1ccc(S(=O)(=O)N(Cc2cc3cccc(C)c3[nH]c2=O)c2ccccc2)cc1`, which Potency is on record?
Answer: Its Potency is inconclusive: 23.1 µM [inhibitor, partial curve].

Question: For `CC(C)(C)NC(=O)C[C@H]1C[C@H](C(=O)N2CCCCC2)[C@@]2(C)c3[nH]c4cc(-c5ccco5)ccc4c3CCN2C1=O`, which Potency is on record?
Answer: Its Potency is inconclusive: 9.2 µM [inhibitor, partial curve, poor fit].

Question: For `Nc1nc2ccc(Oc3ccccc3)cc2s1`, which Potency is on record?
Answer: The Potency was inconclusive: 18.4 µM [activator, partial curve].

Question: For `CCCn1nc(C(=O)N2CCN(c3ccccn3)CC2)c2ccccc2c1=O`, which Potency is on record?
Answer: The Potency was inconclusive: 20.6 µM [inhibitor, single point].

Question: Which Potency does the source give for `COC(=O)c1ccc(OCC(O)CN2CCN(C(=O)c3ccco3)CC2)c(OC)c1` (centres undefined) here?
Answer: The Potency was “inactive”.

Question: Which Potency does the source give for `Cc1ccnc(NC(=O)C2CCC(CNc3c(N4CCCC4)c(=O)c3=O)CC2)c1` (centres undefined) here?
Answer: The Potency was inconclusive: 16.4 µM [inhibitor, partial curve].

Question: For `O=C1Nc2cc(C(=O)N3CCN(Cc4ccccc4)CC3)ccc2SC1N1CCOCC1` (centres undefined), which Potency is on record?
Answer: Its Potency is “inactive”.

Question: For `O=C(CN1CCN(S(=O)(=O)c2ccc(Cl)cc2)CC1)Nc1ccc2c(c1)OCCO2`, which Potency is on record?
Answer: Its Potency is “inactive”.

Question: For `Cc1nn(Cc2cccc(C(=O)N3N=C(C(F)F)CC3(O)C(F)F)c2)c(C)c1[N+](=O)[O-]` (centres undefined), which Potency is on record?
Answer: The Potency was inconclusive: 18.4 µM [inhibitor, single point].

Question: For `CCn1c2ccccc2c2cc(NC(=O)COC(=O)c3cc(S(=O)(=O)N4CCCCC4)ccc3Cl)ccc21`, which Potency is on record?
Answer: Its Potency is “inactive”.
